According to patent US11813249B2, “Combination therapy for treatment of restenosis” (Mercator MedSystems, Inc., priority 2017, dated 2023):
For at least one compound, name, drawing or mass did not settle the structure.

What was measured:
Assay type in all cases: cell-based
[1] = test system: IL6 cytokine production of human aortic VSMCs; test: IL6 ELISA of supernatant of PDGF-stimulated VSMCs; conditions: 48 h; single drug 0, 10, 50, 500 nM, or 500 nM TEM or PAC with DEX 10, 50, 500 nM; FIG. 19D
Description: (§1) Following a 48 hour incubation in the presence of drug and stimulant (PDGF), 50 uL of supernatant from each well was collected and ELISAs were performed to measure IL6 levels. Pro-inflammatory cytokine expression was examined under these conditions by measuring IL6 levels in cell supernatant after 48 h by enzyme-linked immunoassay (ELISA; Peprotech #900-T16, #900-T25).

[2] = test system: TNFα production of human aortic VSMCs; test: TNFα ELISA of supernatant of PDGF-stimulated VSMCs
Description: as §1, with “TNFα” for “IL6”

[3] = test system: human aortic VSMCs; test: MTT metabolic activity / proliferation of PDGF-stimulated VSMCs; conditions: PDGF 10 ng/mL
Description: Drug-specific effects on cellular metabolic activity, pro-inflammatory cytokine production and cytotoxicity were examined. As a cytotoxic control for disruption of metabolic activity, we used actinomycin D (100 ng/mL or […]). As a negative control, vehicle (5% (v/v) sterile DMSO in saline) was used. Following an 8 hour incubation in the presence of drug and stim (PDGF), MTT substrate was added and incubated for an additional 4 hrs prior to measurement. […] Data represent the average absorbance readings.
After 8 h incubation, MTT substrate was added and incubated for an additional 4 hrs prior to measurement (T=12 hours). […] Data represent the average absorbance readings. […] FIG. 19A presents the percent of inhibition that was identified in the presence of single or combination drugs. […]
(§2) A study was performed to assess the ability of a range of drug or drug combinations to induce cytotoxicity in PDGF-stimulated aortic smooth muscle and endothelial cells in vitro. […] Data represent the average absorbance readings. […] Cellular activation was monitored by metabolic activity and cellular proliferation. Metabolic activity was measured using the MTT assay to monitor enzyme-dependent metabolite production while proliferation was measured using 5-bromo-2′-deoxyuridine (BrdU) ELISA to monitor DNA synthesis.

[4] = test system: human aortic VSMCs; test: BrdU ELISA proliferation of PDGF-stimulated VSMCs; conditions: Example 11; 1 nM to 100 μM for 12 hours; PDGF 10 ng/mL; compared to vehicle control and actinomycin D; FIG. 20
Description: as §2, with “vitro. […] Utilizing protocols for EC and VSMC stimulation mediated by the growth factor, PDGF, cells were incubated in drug at concentration ranges from 0, 1, 10, 100 nM, 1, 10, 100 μM for 12 hours prior to assessment for cellular activation and cytotoxicity. Prior to harvest, BrdU was added to each well for 6 hours for DNA incorporation.” for “vitro.”

SMILES	PDGF-induced IL6 levels [1]	PDGF-induced TNFα levels ([2]; 48 h, single drug 0, 10, 50, 500 nM, or 500 nM TEM or PAC with DEX 10, 50, 500 nM, FIG. 19E)	TNFα production ([2]; 48 hour incubation, increasing drug concentrations, with or without 50 nM dexamethasone, FIGS. 15A-C)	inhibitory activity in the MTT assay ([3]; Example 11, 1 nM to 100 μM for 12 hours)	inhibition of metabolic activity and proliferation (MTT assay) ([3]; drug 0, 1, 10, 100, 500 nM, with or without 50 nM dexamethasone, FIGS. 14A-C)	inhibition of BrdU incorporation (cellular proliferation) [4]
C[C@@H]1C[C@H]2[C@@H]3CCC4=CC(=O)C=C[C@]4(C)[C@@]3(F)[C@@H](O)C[C@]2(C)[C@@]1(O)C(=O)CO [dexamethasone]	dose-dependent reduction	dose-dependent reduction	strongly decreased TNFα production in a dose-dependent manner	–	–	–
CO[C@H]1C[C@@H]2CC[C@@H](C)[C@@](O)(O2)C(=O)C(=O)N2CCCC[C@H]2C(=O)O[C@H]([C@H](C)C[C@@H]2CC[C@@H](O)[C@H](OC)C2)CC(=O)[C@H](C)/C=C(\C)[C@@H](O)[C@@H](OC)C(=O)[C@H](C)C[C@H](C)/C=C/C=C/C=C/1C [sirolimus]	–	–	–	at higher concentrations had inhibitory activity	at higher concentrations had inhibitory activity	approached the degree of inhibition of actinomycin D
